In PMC7563118:
No constants are given. Whether binding was seen depends on the method and setting. In cells and extracts the contact can be indirect. A result given as binding can be weak or reduced; the word gives no strength. Tags and fused reporters may be left off the sequences shown.

Columns and labels:
[1] = target: T1, GST-SH3 (C-terminal domain of LASP1) (human) (UniProt Q14847); test: pull-down; 1.5 nmol GST fusion on glutathione beads incubated overnight at 4 °C with 250 µg nuclear lysate of serum-starved, CXCL12-stimulated (20 nM) MDA-Bone-Un cells; 50 mM Tris-HCl pH 7.5, 0.05% Triton X-100, 100 mM NaCl; immunoblot of endogenous proteins; only the target purified
T1 sequence: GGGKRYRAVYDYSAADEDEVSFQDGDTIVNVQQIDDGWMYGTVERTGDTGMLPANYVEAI

[2] = target: T2, GST-LASP1 (full length, wild type) (human) (UniProt Q14847); test: as above
T2 sequence: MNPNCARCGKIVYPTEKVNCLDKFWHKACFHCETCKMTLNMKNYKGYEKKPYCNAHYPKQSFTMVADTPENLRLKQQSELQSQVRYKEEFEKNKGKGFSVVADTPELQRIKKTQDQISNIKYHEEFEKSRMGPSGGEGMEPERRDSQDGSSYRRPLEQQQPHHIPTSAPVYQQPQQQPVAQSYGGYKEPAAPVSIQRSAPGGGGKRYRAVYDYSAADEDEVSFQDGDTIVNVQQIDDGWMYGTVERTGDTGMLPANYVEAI

binding [1]: binds
binding [2]: binds
Substance: Akt (Protein kinase B), endogenous (human (endogenous in MDA-Bone-Un))
